# In patent US7163799B2, “Neuromedin U receptor NMUR2 and nucleotides encoding it” (Merck & Co., Inc., priority 2000, dated 2007):
# Where no end group is shown, it is not given here.
# System: rats
# Test: Core body temperature and gross motor activity in rats (radio transmitter) after ICV administration
# Assay type: in vivo, rat
# Conditions: for change in gross motor activity: measured 24 hours, compared to pre-treatment
substance,measurement,setting,value
YKVNEYQGPVAPSGGFFLFRPRN-NH2 [NMU],change in gross motor activity,1 μg ICV,increased only in the first hour post-dosing
same,core temperature change,3 μg ICV,transient increase in core temperature
same,duration of core temperature increase,3 μg ICV,approximately one hour
same,start of core temperature increase post-dosing,3 μg ICV,about 40 min
same,change in gross motor activity,3 μg ICV,increased only in the first hour post-dosing
